Patent US11970485B2, “RET kinase inhibitors” (Eli Lilly and Company, priority 2020, dated 2024)
Some results were stated once for a whole list of compounds, not compound by compound.

Chains of the proteins cited; added tags and fusions are not shown.
UniProt P07949, whole entry G810S: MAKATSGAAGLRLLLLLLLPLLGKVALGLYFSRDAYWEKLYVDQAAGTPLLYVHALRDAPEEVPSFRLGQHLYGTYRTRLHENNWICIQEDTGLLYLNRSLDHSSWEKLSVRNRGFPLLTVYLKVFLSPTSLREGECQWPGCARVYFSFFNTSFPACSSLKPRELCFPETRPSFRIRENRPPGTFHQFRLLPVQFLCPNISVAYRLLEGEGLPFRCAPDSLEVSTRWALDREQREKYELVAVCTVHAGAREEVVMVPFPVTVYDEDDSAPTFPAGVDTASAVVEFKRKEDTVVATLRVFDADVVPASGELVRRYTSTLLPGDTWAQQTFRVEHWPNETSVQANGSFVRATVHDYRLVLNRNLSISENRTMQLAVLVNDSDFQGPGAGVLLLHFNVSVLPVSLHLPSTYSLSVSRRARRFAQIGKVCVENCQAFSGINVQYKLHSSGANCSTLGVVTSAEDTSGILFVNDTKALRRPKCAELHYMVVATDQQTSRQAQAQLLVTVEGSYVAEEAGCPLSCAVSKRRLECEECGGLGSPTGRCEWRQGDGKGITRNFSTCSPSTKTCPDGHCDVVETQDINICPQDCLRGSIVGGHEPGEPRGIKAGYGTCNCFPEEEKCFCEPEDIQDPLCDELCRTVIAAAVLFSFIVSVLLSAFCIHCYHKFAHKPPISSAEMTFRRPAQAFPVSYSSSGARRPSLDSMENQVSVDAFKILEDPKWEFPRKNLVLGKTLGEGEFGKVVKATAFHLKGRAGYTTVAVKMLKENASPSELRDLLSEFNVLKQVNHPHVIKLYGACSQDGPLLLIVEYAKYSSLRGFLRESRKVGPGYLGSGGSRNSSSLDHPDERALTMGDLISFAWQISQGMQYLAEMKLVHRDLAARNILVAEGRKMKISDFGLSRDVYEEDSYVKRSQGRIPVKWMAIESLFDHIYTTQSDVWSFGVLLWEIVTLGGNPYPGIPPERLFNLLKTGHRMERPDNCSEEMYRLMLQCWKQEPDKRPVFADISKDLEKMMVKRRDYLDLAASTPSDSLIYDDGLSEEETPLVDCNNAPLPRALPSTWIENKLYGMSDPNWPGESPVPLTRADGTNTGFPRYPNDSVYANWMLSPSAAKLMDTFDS

Key:
[1] = target: T1, wildtype, V804 M, and G810S mutant RET kinase (Homo sapiens, UniProt P07949); test: Assay A: RET Enzyme Assay (CisBio HTRF KinEASE-TK); assay type: biochemical; conditions: in at least one of wildtype, V804 M, and G810S mutant RET kinases; 1 mM ATP
T1 construct: N-terminal GST tagged recombinant human RET cytoplasmic domain (aa 658-end) from Eurofins (1.25 nM RET); fused on or other part: N-terminal GST tag

[2] = target: T2, KIF5B-RET WT and RET mutant forms V804 M and G810S in HEK293 cells (Homo sapiens, UniProt P07949); test: Assay B: RET Cell Assay (In-Cell Western, RET autophosphorylation at tyrosine 1062); assay type: cell-based; conditions: in at least one of wildtype, V804 M, and G810S RET mutant cell assays; HEK293, 1 hr compound treatment; read-out: EC50, inhibition of intracellular autophosphorylation of RET at tyrosine 1062
T2 construct: fused on or other part: P33176 (Kinesin-1 heavy chain)

Compound	IC50 [1] [nM]	EC50 [2] [nM]
CC(C)n1nc(-c2ccc(CC(=O)Nc3cc(CC4(C)CC4)no3)cc2)c(C(N)=O)c1N [Example 1, 5-Amino-1-isopropyl-3-(4-(2-((3-((1-methylcyclopropyl)methyl)isoxazol-5-yl)amino)-2-oxoethyl)phenyl)-1H-pyrazole-4-carboxamide]	< 150	< 150
CC(C)n1nc(-c2ccc(CC(=O)Nc3cc(C(C)(C)C(F)(F)F)on3)cc2)c(C(N)=O)c1N [Example 2, 5-Amino-1-isopropyl-3-(4-(2-oxo-2-((5-(1,1,1-trifluoro-2-methylpropan-2-yl)isoxazol-3-yl)amino)ethyl)phenyl)-1H-pyrazole-4-carboxamide]	< 150	< 150
CC(C)n1nc(-c2ccc(CC(=O)Nc3cc(C4(C)CCCC4)no3)cc2)c(C(N)=O)c1N [Example 3, 5-Amino-1-isopropyl-3-(4-(2-((3-(1-methylcyclopentyl)isoxazol-5-yl)amino)-2-oxoethyl)phenyl)-1H-pyrazole-4-carboxamide]	< 150	< 150
CC(C)n1nc(-c2ccc(CC(=O)Nc3cc(C45CC(F)(C4)C5)no3)cc2)c(C(N)=O)c1N [Example 4, 5-Amino-3-(4-(2-((3-(3-fluorobicyclo[1.1.1]pentan-1-yl)isoxazol-5-yl)amino)-2-oxoethyl)phenyl)-1-isopropyl-1H-pyrazole-4-carboxamide]	< 150	< 150
CC(C)n1nc(-c2ccc(CC(=O)Nc3cc(C45CC(C4)C5)no3)cc2)c(C(N)=O)c1N [Example 5, 5-Amino-3-(4-[[(3-[bicyclo[1.1.1]pentan-1-yl]-1,2-oxazol-5-yl)carbamoyl]methyl]phenyl)-1-isopropylpyrazole-4-carboxamide]	< 150	< 150
CC1(n2nc(-c3ccc(CC(=O)Nc4cc(C(C)(C)C(F)(F)F)on4)cc3)c(C(N)=O)c2N)CC1 [Example 6, 5-Amino-1-(1-methylcyclopropyl)-3-[4-([[5-(1,1,1-trifluoro-2-methylpropan-2-yl)-1,2-oxazol-3-yl]carbamoyl]methyl)phenyl]pyrazole-4-carboxamide]	< 150	< 150
CC(C)n1nc(-c2ccc(CC(=O)Nc3cc(C4(C)CC4)no3)cc2)c(C(N)=O)c1N [Example 7, 5-Amino-1-isopropyl-3-[4-([[3-(1-methylcyclopropyl)-1,2-oxazol-5-yl]carbamoyl]methyl)phenyl]pyrazole-4-carboxamide]	< 150	< 150
CC(C)n1nc(-c2ccc(CC(=O)Nc3cc(C(C)(C)C(F)(F)F)n(C)n3)cc2)c(C(N)=O)c1N [Example 8, 5-Amino-3-[4-([[1-methyl-5-(1,1,1-trifluoro-2-methylpropan-2-yl)-1H-pyrazol-3yl]carbamoyl]methyl)phenyl]-1-(propan-2-yl)-1H-pyrazole-4-carboxamide]	< 150	< 150
CC(C)n1nc(-c2ccc(CC(=O)Nc3cc(C(C)(C)C(F)(F)F)no3)cc2)c(C(N)=O)c1N [Example 9, 5-Amino-1-isopropyl-3-[4-([[3-(1,1,1-trifluoro-2-methylpropan-2-yl)-1,2-oxazol-5-yl]carbamoyl]methyl)phenyl]pyrazole-4-carboxamide]	< 150	< 150
CC(C)n1nc(-c2ccc(CC(=O)Nc3cc(C(C)(C)C)sn3)cc2)c(C(N)=O)c1N [Example 10, 5-Amino-3-(4-(2-((5-(tert-butyl)isothiazol-3-yl)amino)-2-oxoethyl)phenyl)-1-isopropyl-1H-pyrazole-4-carboxamide]	< 150	< 150
CC(C)n1nc(-c2ccc(CC(=O)Nc3cc(C45CC(C(F)(F)F)(C4)C5)no3)cc2)c(C(N)=O)c1N [Example 153, 5-Amino-1-isopropyl-3-(4-(2-oxo-2-((3-(3-(trifluoromethyl)bicyclo[1.1.1]pentan-1-yl)isoxazol-5-yl)amino)ethyl)phenyl)-1H-pyrazole-4-carboxamide]	< 150	< 150
CC(C)n1nc(-c2ccc(CC(=O)Nc3cc(CC(C)(C)C)no3)c(F)c2F)c(C(N)=O)c1N [Example 154, 5-Amino-3-[4-[2-[[3-(2,2-dimethylpropyl)isoxazol-5-yl]amino]-2-oxo-ethyl]-2,3-difluoro-phenyl]-1-isopropyl-pyrazole-4-carboxamide]	< 150	< 150
CC1(n2nc(-c3ccc(CC(=O)Nc4cc(-c5ccc(F)cc5Cl)no4)cc3)c(C(N)=O)c2N)CC1 [Example 199, 5-Amino-3-(4-(2-((3-(2-chloro-4-fluorophenyl)isoxazol-5-yl)amino)-2-oxoethyl)phenyl)-1-(1-methylcyclopropyl)-1H-pyrazole-4-carboxamide]	< 150	< 150
CC1(n2nc(-c3ccc(CC(=O)Nc4cc(C56CC(F)(C5)C6)no4)c(F)c3F)c(C(N)=O)c2N)CC1 [Example 221, 5-Amino-3-[2,3-difluoro-4-[2-[[3-(3-fluoro-1-bicyclo[1.1.1]pentanyl)isoxazol-5-yl]amino]-2-oxo-ethyl]phenyl]-1-(1-methylcyclopropyl)pyrazole-4-carboxamide]	< 150	< 150
CC12CC(c3cc(NC(=O)Cc4ccc(-c5nn(C6(C)CC6)c(N)c5C(N)=O)c(F)c4F)on3)(C1)C2 [Example 222, 5-Amino-3-(2,3-difluoro-4-[[(3-[3-methylbicyclo[1.1.1]pentan-1-yl]-1,2-oxazol-5-yl)carbamoyl]methyl]phenyl)-1-(1-methylcyclopropyl)pyrazole-4-carboxamide]	< 150	< 150
CC(C)n1nc(-c2ccc(CC(=O)Nc3cccc(C(F)(F)F)c3)cn2)c(C(N)=O)c1N [Example 292, 5-Amino-1-isopropyl-3-[5-[2-oxo-2-[3-(trifluoromethyl)anilino]ethyl]-2-pyridyl]pyrazole-4-carboxamide]	< 150	< 150
CC(C)n1nc(-c2ccc(CC(=O)Nc3cc(C(C)(C)C(F)(F)F)on3)cn2)c(C(N)=O)c1N [Example 293, 5-Amino-1-isopropyl-3-[5-[2-oxo-2-[[5-(2,2,2-trifluoro-1,1-dimethyl-ethyl)isoxazol-3-yl]amino]ethyl]-2-pyridyl]pyrazole-4-carboxamide]	< 150	< 150
CC(C)n1nc(-c2ccc(CC(=O)Nc3cc(C4(C)CCCC4)no3)cn2)c(C(N)=O)c1N [Example 294, 5-Amino-1-isopropyl-3-[5-[2-[[3-(1-methylcyclopentyl)isoxazol-5-yl]amino]-2-oxo-ethyl]-2-pyridyl]pyrazole-4-carboxamide]	< 150	< 150
CC(C)n1nc(-c2ccc(CC(=O)Nc3cc(-c4ccccc4)no3)cn2)c(C(N)=O)c1N [Example 299, 5-Amino-1-isopropyl-3-[5-[2-oxo-2-[(3-phenylisoxazol-5-yl)amino]ethyl]-2-pyridyl]pyrazole-4-carboxamide]	< 150	< 150
CC(C)n1nc(-c2ccc(CC(=O)Nc3cc(-c4ccc(Cl)cc4Cl)no3)cn2)c(C(N)=O)c1N [Example 300, 5-Amino-3-[5-[2-[[3-(2,4-dichlorophenyl)isoxazol-5-yl]amino]-2-oxo-ethyl]-2-pyridyl]-1-isopropyl-pyrazole-4-carboxamide]	< 150	< 150
CC(C)n1nc(-c2ccc(CC(=O)Nc3cc(C4CCCCC4)no3)cn2)c(C(N)=O)c1N [Example 301, 5-Amino-3-[5-[2-[(3-cyclohexylisoxazol-5-yl)amino]-2-oxo-ethyl]-2-pyridyl]-1-isopropyl-pyrazole-4-carboxamide]	< 150	< 150
CC(C)n1nc(-c2ccc(CC(=O)Nc3cc(-c4ccc(F)cc4Cl)no3)cn2)c(C(N)=O)c1N [Example 302, 5-Amino-3-[5-[2-[[3-(2-chloro-4-fluoro-phenyl)isoxazol-5-yl]amino]-2-oxo-ethyl]-2-pyridyl]-1-isopropyl-pyrazole-4-carboxamide]	< 150	< 150
CCC(C)(C)c1cc(NC(=O)Cc2ccc(-c3nn(C(C)C)c(N)c3C(N)=O)nc2)on1 [Example 303, 5-Amino-3-[5-[2-[[3-(1,1-dimethylpropyl)isoxazol-5-yl]amino]-2-oxo-ethyl]-2-pyridyl]-1-isopropyl-pyrazole-4-carboxamide]	< 150	< 150
CC(C)n1nc(-c2ccc(CC(=O)Nc3cc(C(C)(F)F)no3)cn2)c(C(N)=O)c1N [Example 306, 5-Amino-3-[5-[2-[[3-(1,1-difluoroethyl)isoxazol-5-yl]amino]-2-oxo-ethyl]-2-pyridyl]-1-isopropyl-pyrazole-4-carboxamide]	< 150	< 150
CC(C)n1nc(-c2cnc(CC(=O)Nc3cc(-c4ccc(Cl)cc4Cl)no3)cn2)c(C(N)=O)c1N [Example 308, 5-Amino-3-[5-[2-[[3-(2,4-dichlorophenyl)isoxazol-5-yl]amino]-2-oxo-ethyl]pyrazin-2-yl]-1-isopropyl-pyrazole-4-carboxamide]	< 150	< 150
CCC(C)(C)c1cc(NC(=O)Cc2cnc(-c3nn(C(C)C)c(N)c3C(N)=O)cn2)on1 [Example 310, 5-Amino-3-[5-[2-[[3-(1,1-dimethylpropyl)isoxazol-5-yl]amino]-2-oxo-ethyl]pyrazin-2-yl]-1-isopropyl-pyrazole-4-carboxamide]	< 150	< 150
CC(C)n1nc(-c2cnc(CC(=O)Nc3cc(C(C)(C)C)on3)cn2)c(C(N)=O)c1N [Example 311, 5-Amino-3-[5-[2-[(5-tert-butylisoxazol-3-yl)amino]-2-oxo-ethyl]pyrazin-2-yl]-1-isopropyl-pyrazole-4-carboxamide]	< 150	< 150
